Data reported in patent US11339151B2, “Aliphatic acid amide derivative” (Sumitomo Dainippon Pharma Co., Ltd., priority 2019, dated 2022).
At least one compound was matched to its structure with a doubt left.

Amino acid sequences for entries named in this document (tags omitted).
UniProt P14416, whole entry: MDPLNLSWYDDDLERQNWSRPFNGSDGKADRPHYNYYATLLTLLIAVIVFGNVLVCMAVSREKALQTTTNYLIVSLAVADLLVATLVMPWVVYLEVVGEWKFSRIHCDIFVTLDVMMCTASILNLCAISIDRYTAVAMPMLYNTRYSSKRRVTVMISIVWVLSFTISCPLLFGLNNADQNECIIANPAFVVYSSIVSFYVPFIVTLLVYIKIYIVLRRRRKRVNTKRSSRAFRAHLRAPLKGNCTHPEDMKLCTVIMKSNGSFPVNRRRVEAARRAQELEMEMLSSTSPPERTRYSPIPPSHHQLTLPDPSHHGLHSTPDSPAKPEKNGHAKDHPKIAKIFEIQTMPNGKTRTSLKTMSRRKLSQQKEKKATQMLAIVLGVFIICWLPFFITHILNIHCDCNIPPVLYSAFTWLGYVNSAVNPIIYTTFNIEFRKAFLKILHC

Biological target: human D2 receptor (Homo sapiens (Human), UniProt P14416)
Test: Test 1: binding activity for human D2 receptor ([3H]Spiperone, CHO cell membrane fraction)
Details: selectivity ratio
Procedure: Ki value was evaluated from dissociation constant which was calculated from saturated binding tests, and a substrate concentration, and it was used as an index for binding affinity.

| SMILES | D2 Ki/5-HT2A Ki | D2 Ki/5-HT7 Ki |
| --- | --- | --- |
| CCN(CCN1CCC(c2noc3cc(F)ccc23)CC1)C(=O)C(O)COC (stereo not drawn) [Example 18, N-Ethyl-N-{2-[4-(6-fluoro-1,2-benzoisoxazol-3-yl)piperidin-1-yl]ethyl}-2-hydroxy-3-methoxypropanamide] | 79 | 53 |
| CCN(CCN1CCC(c2noc3cc(F)ccc23)CC1)C(=O)C(O)CN (stereo not drawn) [Example 65, 3-Amino-N-ethyl-N-{2-[4-(6-fluoro-1,2-benzoisoxazol-3-yl)piperidin-1-yl]ethyl}-2-hydroxypropanamide] | 48 | 26 |
| CCN(CCN1CCC(c2noc3cc(F)ccc23)CC1)C(=O)C1(O)CC1 [Example 24] | <95 | <91 |
